PubChem BioAssay AID1259405, NCATS | 2018

- Test: 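Mouse-designed siRNAs used to find CHO productivity engineering targets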 (primary screen)
- Cells: Chinese hamster CHO-K1 ovary cells with stable secreted eGFP expression
- Knock-down reagent: single siRNA against mouse genes, 0.8 pmol siRNA per well (2 µl of 400 nM stock)
- Time to read-out: 3 days
- Measurement: 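Percent of the per-plate non-targeting control median for intracellular GFP per well by laser scanning cytometry and for cell viability by ATP luminescence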
- Direction: GFP, % of control: higher = more GFP per well, higher productivity; viability (ATP), % of control: higher = more viable cells (more ATP)
- Call rule: 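a knock-down is called active if GFP reaches 120% or more of non-targeting control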
The whole screen tested about 50,000 reagents; below is a part drawn at random. Of all reagents, about 4,000 (8%) got an active call. 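Mouse siRNA library applied to hamster cells; one well for each siRNA.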 The numbers tell different reagents against one gene apart.

Fgf3 #1 → GFP, % of control: 83.6; viability (ATP), % of control: 46.3; outcome: inactive
Fgf3 #2 → GFP, % of control: 73.4; viability (ATP), % of control: 30.7; outcome: inactive
Fgf3 #3 → GFP, % of control: 73.5; viability (ATP), % of control: 57.8; outcome: inactive
Fip1l1 #1 → GFP, % of control: 55.4; viability (ATP), % of control: 63.5; outcome: inactive
Fip1l1 #2 → GFP, % of control: 114; viability (ATP), % of control: 102; outcome: inactive
Fip1l1 #3 → GFP, % of control: 61.3; viability (ATP), % of control: 48.5; outcome: inactive
Taar3 #1 → GFP, % of control: 141; viability (ATP), % of control: 131; outcome: active
Taar3 #2 → GFP, % of control: 81.1; viability (ATP), % of control: 85.8; outcome: inactive
Taar3 #3 → GFP, % of control: 52.5; viability (ATP), % of control: 76.3; outcome: inactive
Agfg2 #1 → GFP, % of control: 104; viability (ATP), % of control: 85.5; outcome: inactive
Agfg2 #2 → GFP, % of control: 99.5; viability (ATP), % of control: 72.4; outcome: inactive
Agfg2 #3 → GFP, % of control: 73.6; viability (ATP), % of control: 65.1; outcome: inactive
Gli1 #1 → GFP, % of control: 111; viability (ATP), % of control: 75.3; outcome: inactive
Gli1 #2 → GFP, % of control: 111; viability (ATP), % of control: 84.1; outcome: inactive
Gdpgp1 #1 → GFP, % of control: 71.3; viability (ATP), % of control: 71.1; outcome: inactive
Gdpgp1 #2 → GFP, % of control: 102; viability (ATP), % of control: 85.4; outcome: inactive
Gdpgp1 #3 → GFP, % of control: 92.6; viability (ATP), % of control: 36.2; outcome: inactive

A run of entries taken from the entries so far, as a working copy:
Taar3 #2 → GFP, % of control: 81.1; viability (ATP), % of control: 85.8; outcome: inactive
Taar3 #3 → GFP, % of control: 52.5; viability (ATP), % of control: 76.3; outcome: inactive
